{"source": "PubChem BioAssay AID330", "about": "(DTP/NCI, 2004)", "tested_on": "P388 leukemia ip, CD2F1 mice, survival T/C", "experiment": "NCI In Vivo Anticancer Drug Screen. Data for tumor model P388 Leukemia (intraperitoneal) in CD2F1 (CDF1) mice", "conditions": "T/C endpoint: median survival time, higher T/C = longer survival", "key": {"[1]": {"conditions": "dose: 16.0 mg/kg/injection, schedule: Q01DX009 (ip), vehicle: Klucel (hydroxypropylcellulose) (HPC)"}}, "note": "The list is a part of this screen's results and no random one: it gathers tests that were run many times, whatever their T/C, doses with no T/C, and many T/C values between a quarter and a half above the control. Other doses and runs of a compound stand elsewhere. T/C gives the treated animals as a percentage of the vehicle group. Some entries give survivors of the animals treated and no T/C: the source files T/C as zero there, which appears to mark a toxic dose or a test without result, not a measured value. Some doses without a T/C left all or most animals alive at the check, yet need not have been tolerated: survival well below the control is almost never listed, so the zero probably covers shortened survival too. Counts of survivors are from the toxicity check (mostly the fifth day) where no day follows; animals may have died later. Schedules are NCI's codes, read here as Q, the interval in days (D) or hours (H), X, the number of doses. Brackets with × say how often a value occurs here. Some doses were run more than once; the results are listed from low to high. For survival time, the PubChem record calls one and a half times the control and up active, and a quarter to a half above the control has no call in these data; cut-offs in other NCI protocols can differ. Some T/C values carry the count of animals alive at the toxicity check (mostly the fifth day); without a count, all were alive then."}
{"smiles": "O=NN(CCCl)C(=O)NCCCl", "values": [{"measurement": "T/C", "setting": "dose: 16.0 mg/kg/injection, schedule: Q01DX001 (ip), vehicle: saline + alcohol, evaluated on day 30", "value": "162 and 180 % of control"}, {"measurement": "T/C", "setting": "[1]", "value": "103, 110, 140 % of control"}, {"measurement": "survivor count", "setting": "[1]", "value": "6 of 6"}, {"measurement": "T/C", "setting": "dose: 16.0 mg/kg/injection, schedule: Q01DX009 (ip), vehicle: saline + alcohol, evaluated on day 30", "value": "89, 94, 96, 104, 109 % of control"}, {"measurement": "T/C", "setting": "dose: 16.0 mg/kg/injection, schedule: Q01DX009 (ip), vehicle: saline + alcohol, evaluated on day 35", "value": "121 % of control"}, {"measurement": "T/C", "setting": "dose: 16.0 mg/kg/injection, schedule: Q01DX009 (ip), vehicle: saline + alcohol, evaluated on day 45", "value": "96 % of control"}, {"measurement": "T/C", "setting": "dose: 16.0 mg/kg/injection, schedule: Q01DX009 (ip), vehicle: saline, evaluated on day 30", "value": "86, 87, 99 (2×), 106, 122, 128, 133, 135, 138, 139, 172 % of control"}, {"measurement": "T/C", "setting": "dose: 16.0 mg/kg/injection, schedule: Q01DX009 (ip), vehicle: saline, evaluated on day 60", "value": "109, 113, 118, 135 % of control"}, {"measurement": "T/C", "setting": "dose: 20.0 mg/kg/injection, schedule: Q01DX001 (ip), vehicle: saline + alcohol, evaluated on day 8", "value": "185 % of control"}, {"measurement": "T/C", "setting": "dose: 20.0 mg/kg/injection, schedule: Q01DX001 (ip), vehicle: saline + alcohol, evaluated on day 30", "value": "130, 149, 166, 182, 183, 184, 186, 188, 190, 194 (2×), 197, 198, 200, 202, 203 (2×), 205 (2×), 211, 212, 216, 247, 257, 263, 300 (2×), 309 % of control"}, {"measurement": "T/C", "setting": "dose: 20.0 mg/kg/injection, schedule: Q01DX001 (ip), vehicle: saline + alcohol, evaluated on day 35", "value": "260 % of control"}, {"measurement": "T/C", "setting": "dose: 20.0 mg/kg/injection, schedule: Q01DX001 (ip), vehicle: saline + alcohol, evaluated on day 44", "value": "207 and 216 % of control"}, {"measurement": "T/C", "setting": "dose: 20.0 mg/kg/injection, schedule: Q01DX001 (ip), vehicle: saline + alcohol, evaluated on day 45", "value": "228 and 405 % of control"}, {"measurement": "T/C", "setting": "dose: 20.0 mg/kg/injection, schedule: Q01DX001 (ip), vehicle: saline + alcohol, evaluated on day 60", "value": "174, 187 [5 of 6 alive], 235, 252, 566 % of control (2×)"}, {"measurement": "T/C", "setting": "dose: 30.0 mg/kg/injection, schedule: Q01DX001 (ip), vehicle: saline + alcohol, evaluated on day 44", "value": "241 and 250 % of control"}, {"measurement": "T/C", "setting": "dose: 30.0 mg/kg/injection, schedule: Q01DX001 (ip), vehicle: saline + alcohol, evaluated on day 45", "value": "394 and 405 % of control"}, {"measurement": "T/C", "setting": "dose: 30.0 mg/kg/injection, schedule: Q01DX001 (ip), vehicle: saline + alcohol, evaluated on day 60", "value": "566 (2×), 576, 606 % of control"}, {"measurement": "survivor count", "setting": "dose: 30.0 mg/kg/injection, schedule: Q01DX005 (ip), vehicle: Klucel (hydroxypropylcellulose) (HPC)", "value": "6 of 6"}, {"measurement": "T/C", "setting": "dose: 30.0 mg/kg/injection, schedule: Q01DX005 (ip), vehicle: saline + alcohol, evaluated on day 30", "value": "88 (2×), 89, 93, 97, 107, 108, 109, 110, 111, 113, 133, 152, 223, 300 % of control"}, {"measurement": "T/C", "setting": "dose: 30.0 mg/kg/injection, schedule: Q01DX005 (ip), vehicle: saline + alcohol, evaluated on day 35", "value": "90 % of control"}, {"measurement": "T/C", "setting": "dose: 30.0 mg/kg/injection, schedule: Q01DX005 (ip), vehicle: saline + alcohol, evaluated on day 60", "value": "94 % of control"}, {"measurement": "survivor count", "setting": "dose: 30.0 mg/kg/injection, schedule: Q01DX005 (ip), vehicle: saline + alcohol", "value": "6 of 6 (2×)"}, {"measurement": "survivor count", "setting": "dose: 30.0 mg/kg/injection, schedule: Q01DX009 (ip), vehicle: Klucel (hydroxypropylcellulose) (HPC)", "value": "6 of 6"}, {"measurement": "T/C", "setting": "dose: 30.0 mg/kg/injection, schedule: Q01DX009 (ip), vehicle: saline + alcohol, evaluated on day 30", "value": "87, 88, 93, 97, 99, 100 (2×), 100 [5 of 6 alive], 104, 105, 107, 113 % of control"}, {"measurement": "T/C", "setting": "dose: 30.0 mg/kg/injection, schedule: Q01DX009 (ip), vehicle: saline + alcohol, evaluated on day 35", "value": "87 % of control"}, {"measurement": "survivor count", "setting": "dose: 30.0 mg/kg/injection, schedule: Q01DX009 (ip), vehicle: saline + alcohol", "value": "6 of 6 (2×)"}, {"measurement": "T/C", "setting": "dose: 32.0 mg/kg/injection, schedule: Q01DX001 (ip), vehicle: saline + alcohol, evaluated on day 9", "value": "189 and 275 % of control"}, {"measurement": "T/C", "setting": "dose: 32.0 mg/kg/injection, schedule: Q01DX001 (ip), vehicle: saline + alcohol, evaluated on day 30", "value": "198 and 209 % of control"}, {"measurement": "survivor count", "setting": "dose: 32.0 mg/kg/injection, schedule: Q01DX009 (ip), vehicle: saline with Tween-80", "value": "10 of 10"}, {"measurement": "T/C", "setting": "dose: 40.0 mg/kg/injection, schedule: Q01DX001 (ip), vehicle: saline + alcohol, evaluated on day 8", "value": "284 % of control"}, {"measurement": "T/C", "setting": "dose: 40.0 mg/kg/injection, schedule: Q01DX001 (ip), vehicle: saline + alcohol, evaluated on day 30", "value": "95, 208, 217, 226, 235, 247, 250 (2×), 254, 259, 265 (3×), 277, 285, 287, 294 (3×), 297 (3×), 300 (4×), 303, 309 % of control"}, {"measurement": "T/C", "setting": "dose: 40.0 mg/kg/injection, schedule: Q01DX001 (ip), vehicle: saline + alcohol, evaluated on day 35", "value": "350 % of control"}, {"measurement": "T/C", "setting": "dose: 40.0 mg/kg/injection, schedule: Q01DX001 (ip), vehicle: saline + alcohol, evaluated on day 44", "value": "110 and 198 % of control"}, {"measurement": "T/C", "setting": "dose: 40.0 mg/kg/injection, schedule: Q01DX001 (ip), vehicle: saline + alcohol, evaluated on day 45", "value": "394 % of control"}, {"measurement": "T/C", "setting": "dose: 40.0 mg/kg/injection, schedule: Q01DX001 (ip), vehicle: saline + alcohol, evaluated on day 60", "value": "256, 576, 582 % of control"}, {"measurement": "survivor count", "setting": "dose: 40.0 mg/kg/injection, schedule: Q04DX003 (ip), vehicle: saline + alcohol", "value": "5 of 6"}, {"measurement": "survivor count", "setting": "dose: 40.0 mg/kg/injection, schedule: Q04DX003 (iv), vehicle: saline + alcohol", "value": "6 of 6"}, {"measurement": "survivor count", "setting": "dose: 50.0 mg/kg/injection, schedule: Q01DX005 (ip), vehicle: saline with Tween-80", "value": "6 of 6"}, {"measurement": "survivor count", "setting": "dose: 60.0 mg/kg/injection, schedule: Q01DX001 (iv), vehicle: saline + alcohol", "value": "3 of 6"}, {"measurement": "T/C", "setting": "dose: 64.0 mg/kg/injection, schedule: Q01DX001 (ip), vehicle: Klucel (hydroxypropylcellulose) (HPC)", "value": "132 % of control"}, {"measurement": "T/C", "setting": "dose: 64.0 mg/kg/injection, schedule: Q01DX001 (ip), vehicle: saline + alcohol, evaluated on day 9", "value": "92 and 112 % of control"}, {"measurement": "T/C", "setting": "dose: 64.0 mg/kg/injection, schedule: Q01DX001 (ip), vehicle: saline + alcohol, evaluated on day 30", "value": "207 % of control"}, {"measurement": "survivor count", "setting": "dose: 64.0 mg/kg/injection, schedule: Q01DX001 (ip), vehicle: saline + alcohol", "value": "6 of 6"}, {"measurement": "survivor count", "setting": "dose: 64.0 mg/kg/injection, schedule: Q01DX001 (ip), vehicle: water", "value": "6 of 6"}, {"measurement": "survivor count", "setting": "dose: 64.0 mg/kg/injection, schedule: Q01DX009 (ip), vehicle: saline with Tween-80", "value": "8 of 10"}, {"measurement": "T/C", "setting": "dose: 80.0 mg/kg/injection, schedule: Q01DX001 (ip), vehicle: saline + alcohol, evaluated on day 8", "value": "99 % of control"}, {"measurement": "T/C", "setting": "dose: 80.0 mg/kg/injection, schedule: Q01DX001 (ip), vehicle: saline + alcohol, evaluated on day 30", "value": "88 (3×), 90, 94, 99, 100, 103, 104, 140, 171, 285, 294, 300 % of control"}, {"measurement": "survivor count", "setting": "dose: 80.0 mg/kg/injection, schedule: Q01DX001 (ip), vehicle: saline + alcohol", "value": "5 of 6 (2×) and 6 of 6 (2×)"}, {"measurement": "survivor count", "setting": "dose: 100.0 mg/kg/injection, schedule: Q01DX005 (ip), vehicle: saline with Tween-80", "value": "0 of 6 and 4 of 6"}, {"measurement": "survivor count", "setting": "dose: 125.0 mg/kg/injection, schedule: Q01DX001 (ip), vehicle: saline with Tween-80", "value": "1 of 6 and 6 of 6"}, {"measurement": "survivor count", "setting": "dose: 128.0 mg/kg/injection, schedule: Q01DX001 (ip), vehicle: saline with Tween-80", "value": "2 of 2"}, {"measurement": "survivor count", "setting": "dose: 128.0 mg/kg/injection, schedule: Q01DX001 (oral), vehicle: saline with Tween-80", "value": "5 of 6"}, {"measurement": "survivor count", "setting": "dose: 200.0 mg/kg/injection, schedule: Q01DX005 (ip), vehicle: saline with Tween-80", "value": "0 of 6"}, {"measurement": "survivor count", "setting": "dose: 250.0 mg/kg/injection, schedule: Q01DX001 (ip), vehicle: saline with Tween-80", "value": "0 of 6"}, {"measurement": "survivor count", "setting": "dose: 256.0 mg/kg/injection, schedule: Q01DX001 (oral), vehicle: saline with Tween-80", "value": "0 of 6"}, {"measurement": "survivor count", "setting": "dose: 400.0 mg/kg/injection, schedule: Q01DX005 (ip), vehicle: saline with Tween-80", "value": "0 of 6"}, {"measurement": "survivor count", "setting": "dose: 500.0 mg/kg/injection, schedule: Q01DX001 (ip), vehicle: saline with Tween-80", "value": "0 of 6"}, {"measurement": "survivor count", "setting": "dose: 1000.0 mg/kg/injection, schedule: Q01DX001 (ip), vehicle: saline with Tween-80", "value": "0 of 6"}, {"measurement": "survivor count", "setting": "dose: 2000.0 mg/kg/injection, schedule: Q01DX001 (ip), vehicle: saline with Tween-80", "value": "0 of 6"}]}
